The values that follow come from paper PMC12730105, “The Interaction Between PGD2 and G6PD6 Is Involved in Aromatic Amino Acid Synthesis” (Biology, 2025).

No constants are given. Whether binding was seen depends on the method and setting. Binding seen in cells or lysates may run through a third protein. Some entries that bind do so weakly or less than the wild type. Tags and fused reporters may be left off the sequences shown.

The target in experiment [1] is T1, glucose-6-phosphate dehydrogenase 6 (G6PD6), full length, split-YFP fusion G6PD6-CYFP (Arabidopsis thaliana) (UniProt Q9FJI5).
T1 sequence: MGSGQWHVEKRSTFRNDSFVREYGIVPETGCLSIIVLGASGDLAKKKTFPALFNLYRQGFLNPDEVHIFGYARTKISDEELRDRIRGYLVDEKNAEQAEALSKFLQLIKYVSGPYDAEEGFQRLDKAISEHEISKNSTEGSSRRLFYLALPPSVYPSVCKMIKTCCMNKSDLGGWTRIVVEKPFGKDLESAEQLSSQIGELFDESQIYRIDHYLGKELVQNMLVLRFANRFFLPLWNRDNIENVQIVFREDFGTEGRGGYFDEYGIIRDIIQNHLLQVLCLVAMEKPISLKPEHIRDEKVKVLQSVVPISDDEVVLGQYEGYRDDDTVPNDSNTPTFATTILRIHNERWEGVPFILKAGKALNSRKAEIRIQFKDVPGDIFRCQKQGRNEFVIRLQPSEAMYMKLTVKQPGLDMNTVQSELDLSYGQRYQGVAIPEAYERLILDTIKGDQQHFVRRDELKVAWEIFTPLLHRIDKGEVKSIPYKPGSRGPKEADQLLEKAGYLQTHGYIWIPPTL
In words: split reporter; BiFC with split YFP (pCNHP-CYFP and pCNHP-NYFP fusions), transient expression in N. benthamiana leaves by Agrobacterium infiltration, confocal microscopy 3 days after infiltration.

Experiment [2] concerns the target T2, G6PD6-GFP (35S::G6PD6-GFP) (Arabidopsis thaliana) (UniProt Q9FJI5).
T2 sequence: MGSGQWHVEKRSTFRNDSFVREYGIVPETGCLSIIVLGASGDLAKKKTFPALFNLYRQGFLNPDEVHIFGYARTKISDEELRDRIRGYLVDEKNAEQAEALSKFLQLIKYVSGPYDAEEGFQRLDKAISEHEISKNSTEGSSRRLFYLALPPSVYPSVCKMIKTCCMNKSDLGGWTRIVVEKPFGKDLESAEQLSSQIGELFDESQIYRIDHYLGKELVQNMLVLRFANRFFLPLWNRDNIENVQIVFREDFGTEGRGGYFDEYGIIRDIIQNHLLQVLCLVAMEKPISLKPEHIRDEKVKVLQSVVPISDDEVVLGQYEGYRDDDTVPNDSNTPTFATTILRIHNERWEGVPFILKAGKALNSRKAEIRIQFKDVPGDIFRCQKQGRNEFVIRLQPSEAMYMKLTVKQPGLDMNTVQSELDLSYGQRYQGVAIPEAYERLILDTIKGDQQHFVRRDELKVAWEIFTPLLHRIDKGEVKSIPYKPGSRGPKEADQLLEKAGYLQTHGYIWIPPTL
Briefly: co-IP; 35S::PGD2-HA and 35S::G6PD6-GFP co-infiltrated in N. benthamiana leaves; extracts (50 mM Tris-HCl pH 7.5, 150 mM NaCl, 5 mM EDTA, 0.1% Triton X-100, 0.2% NP-40) incubated with GFP-nanobody magnetic beads at 4 °C for 3 h; blots with anti-HA and anti-GFP.

B1: truncated PGD2 (sPGD2; lacking the N-terminal 15 amino acids), BiFC fusion (domain or fragment, UniProt Q9FWA3 16-486)
chain: MGQNLALNIAEKGFPISVYNRTTSKVDETVERAKKEGNLPLYGFHDPESFVKSIQKPRVIIMLVKAGSPVDQTIKTLSAYLEKGDCIVDGGNEWYENTERREKAVAENGFLYLGMGVSGGEEGARNGPSMMPGGSYEAYKNIEDIVLKVAAQVRDSGPCVTYIGKGGSGNFVKMVHNGIEYGDMQLIAEAYDVLKSVGKLSNEELHSVFSDWNKGELESFLVEITADIFGIKDDKGDGHLVDKVLDKTGMKGTGKWTVQQAAELSVPAPTIESSLDARFLSGLKDERVQAAKVFKAGGFGDILTDQKVDKKQLVDDVRKALYASKICSYAQGMNLIRAKSIEKGWGLKLGELARIWKGGCIIRAIFLDRIKQAYDRNAELANLLVDPEFAKEIIERQSAWRRVVCLAINSGISTPGMSASLAYFDSYRRERLPANLVQAQRDYFGAHTYERTDVEGSFHTEWFKIARQSKI
In the case of B1, in experiment [1], the binding entry is on record as “binds”.

B2: 6-phosphogluconate dehydrogenase 2 (PGD2), full length, split-YFP fusion PGD2-NYFP (enzyme, UniProt Q9FWA3 1-486)
chain: MAVQPTRIGLAGLAVMGQNLALNIAEKGFPISVYNRTTSKVDETVERAKKEGNLPLYGFHDPESFVKSIQKPRVIIMLVKAGSPVDQTIKTLSAYLEKGDCIVDGGNEWYENTERREKAVAENGFLYLGMGVSGGEEGARNGPSMMPGGSYEAYKNIEDIVLKVAAQVRDSGPCVTYIGKGGSGNFVKMVHNGIEYGDMQLIAEAYDVLKSVGKLSNEELHSVFSDWNKGELESFLVEITADIFGIKDDKGDGHLVDKVLDKTGMKGTGKWTVQQAAELSVPAPTIESSLDARFLSGLKDERVQAAKVFKAGGFGDILTDQKVDKKQLVDDVRKALYASKICSYAQGMNLIRAKSIEKGWGLKLGELARIWKGGCIIRAIFLDRIKQAYDRNAELANLLVDPEFAKEIIERQSAWRRVVCLAINSGISTPGMSASLAYFDSYRRERLPANLVQAQRDYFGAHTYERTDVEGSFHTEWFKIARQSKI
In the case of B2, the binding result in experiment [1] is “binds”.

B3: PGD2-HA (35S::PGD2-HA) (enzyme, UniProt Q9FWA3 1-486)
chain: MAVQPTRIGLAGLAVMGQNLALNIAEKGFPISVYNRTTSKVDETVERAKKEGNLPLYGFHDPESFVKSIQKPRVIIMLVKAGSPVDQTIKTLSAYLEKGDCIVDGGNEWYENTERREKAVAENGFLYLGMGVSGGEEGARNGPSMMPGGSYEAYKNIEDIVLKVAAQVRDSGPCVTYIGKGGSGNFVKMVHNGIEYGDMQLIAEAYDVLKSVGKLSNEELHSVFSDWNKGELESFLVEITADIFGIKDDKGDGHLVDKVLDKTGMKGTGKWTVQQAAELSVPAPTIESSLDARFLSGLKDERVQAAKVFKAGGFGDILTDQKVDKKQLVDDVRKALYASKICSYAQGMNLIRAKSIEKGWGLKLGELARIWKGGCIIRAIFLDRIKQAYDRNAELANLLVDPEFAKEIIERQSAWRRVVCLAINSGISTPGMSASLAYFDSYRRERLPANLVQAQRDYFGAHTYERTDVEGSFHTEWFKIARQSKI
For the molecule B3, the binding result in experiment [2] is recorded as “binds”.
